Results taken from PubChem BioAssay AID2685 (National Center for Advancing Translational Sciences (NCATS), 2010).
The other results are listed elsewhere or left out. These are further read-outs of the screen, such as a control signal, another cell line or another target. No call is given for them. Most of these compounds were active or inconclusive in the main read-out, so they are no random draw. Potencies come from curve fits of mixed quality, noted in brackets.

Experiment: qHTS Assay for Lipid Storage Modulators in Drosophila S3 Cells;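 on cell number change: cells counted by Cell Tracker Red CMTPX staining in the red channel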
Details: BODIPY lipid droplet fluorescence, 18-24 h; for cell number change: measured here: cell count max response, cells fed with added oleic acid
Method in brief: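 Laser-scanning cytometry quantifies lipid droplet accumulation (500–530 nm total intensity; droplet/cell object ratio) in oleic acid-fed (400 uM added) Drosophila S3 cells treated with a concentration series. 20 uM Triacsin C defined 100% inhibition.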

[1] = measured here: lipid fluorescence (Fed channel) AC50, cells fed with added oleic acid
[2] = measured here: cell number channel AC50, cells fed with added oleic acid

| SMILES | AC50 [1] | cell number change [%] | AC50 [2] |
| --- | --- | --- | --- |
| CC(NC(=O)C1CCN(S(=O)(=O)c2cccc3cccnc23)CC1)c1ccccc1 (configuration not stated) | 29.1 µM [falling, single point] | – | – |
| Cn1c(=O)oc2cc(S(=O)(=O)N3CCCC3)ccc21 | 1.64 µM [falling, full curve] | -70.4 | – |
| O=C(O)CNC(=S)N(Cc1ccccc1)Cc1cccs1 | 1.84 µM [falling, partial curve] | -11.6 | – |
| O=S(=O)(c1ccccc1)N1CCN(C(=S)Nc2ccc(Br)cc2)CC1 | 29.1 µM [falling, single point] | -8.67 | – |
| COc1ccccc1N1CCN(C(=O)Cn2nnc(-c3ccncc3)n2)CC1 | 5.8 µM [rising, partial curve] | 11.8 | – |
| O=C(Nc1ccc(S(=O)(=O)N2CCCCC2c2cccnc2)cc1)c1c(F)cccc1F (configuration not stated) | – | 26 | – |
| O=C(N[C@@H](Cc1c[nH]c2ccccc12)C(=O)O)C1CCN(S(=O)(=O)c2ccc(Cl)cc2)CC1 | 0.00461 µM [falling, full curve, poor fit] | -12.4 | – |
| O=C(Cc1cccc2ccccc12)Nc1ccc(OC(F)F)c(Cl)c1 | 3.26 µM [rising, partial curve, poor fit] | 4.15 | – |
| FC(F)(F)c1cnc(Oc2cccc3ccccc23)c(Cl)c1 | 29.1 µM [rising, single point] | 20 | – |
| COCCNS(=O)(=O)c1ccc2c(c1)n(C)c(=O)n2C | 0.291 µM [falling, full curve, poor fit] | 12.5 | – |
| COCCN(C(=O)CCC(=O)Nc1nccs1)C(C(=O)NCCC(C)C)c1ccc(OC)cc1 (configuration not stated) | 6.51 µM [falling, single point] | 6.76 | – |
| CCOc1ccc(C(CC(=O)O)NC(=O)C23CC4CC(CC(C4)C2)C3)cc1OC (configuration not stated) | 1.16 µM [rising, partial curve, poor fit] | 11.2 | – |
| O=S(=O)(c1ccc(OCC(O)CN2CCC(Cc3ccccc3)CC2)cc1)N1CCOCC1 (configuration not stated) | 14.6 µM [falling, partial curve] | -73.4 | 10.3 µM [falling, partial curve] |
| Cc1nc2ccccn2c1C(=O)NNC(=S)Nc1ccc(Cl)cc1 | 1.64 µM [rising, partial curve, poor fit] | -42 | 29.1 µM [falling, single point] |
| Cc1ccc(-c2cc(=O)[nH][nH]2)c(C)c1 | – | -5.1 | – |
| CCn1c(SCC(=O)Nc2ccccc2-c2ccccc2)nnc1-c1ccoc1C | 5.17 µM [falling, single point] | -1.43 | – |
| CCCOC(=O)Cc1c(O)c2ccccc2[nH]c1=O | – | 31.2 | 0.164 µM [rising, full curve, poor fit] |
| O=C1Nc2ccc(Br)cc2C1=C1CCCCC1 | 29.1 µM [falling, single point] | -31 | 29.1 µM [falling, single point] |
| O=C(c1ccccc1)c1ccc2nc[nH]c2c1 | 0.58 µM [falling, single point] | 52.6 | 18.4 µM [rising, single point] |
| CCn1ccnc1C(O)c1cccc(OC)c1 (configuration not stated) | 0.184 µM [falling, full curve] | -0.768 | – |

| SMILES | AC50 [1] | cell number change [%] | AC50 [2] |
| --- | --- | --- | --- |
| CCOC(=O)CCc1c(C)nc(SCCCn2c(=O)[nH]c3ccccc32)c(C#N)c1C | – | – | 0.103 µM [rising, full curve, poor fit] |
| COc1ccc(/C=C/C(=O)NCC2COc3ccccc3O2)c(OC)c1 (configuration not stated) | – | – | 0.231 µM [rising, full curve, poor fit] |
| CCOC(=O)c1c(C)oc2c1c(C(c1cccnc1)N1CCCCC1)c(O)c1ccccc12 (configuration not stated) | 1.64 µM [rising, partial curve] | 11.5 | 1.46 µM [rising, partial curve] |
| O/N=C(\c1ccc(Cl)cc1)c1ncc(C(F)(F)F)cc1Cl | 20.6 µM [falling, partial curve] | -77.5 | 23.1 µM [falling, partial curve, poor fit] |
| Cc1cccc(NC(=O)CN2CCN(C(=O)c3ccc(-c4nc5ccccc5s4)o3)CC2)c1C | 0.146 µM [falling, full curve, poor fit] | 1.36 | – |
| COc1cc(-c2noc(C)c2-c2ccc3[nH]ccc3c2)cc(OC)c1OC | – | -5.18 | – |
| Cc1c(C(=O)Nc2cccc(Cl)c2)oc2ccc(S(=O)(=O)N3CCC4(CC3)OCCO4)cc12 | 7.31 µM [falling, partial curve, poor fit] | -18.8 | 7.31 µM [falling, partial curve, poor fit] |
| COc1ccc(C(=O)Nc2ccc(S(=O)(=O)NC(C)=O)cc2)cc1 | – | -119 | 20.6 µM [falling, single point] |
| CNc1ccccc1 | 0.092 µM [rising, single point] | 9.9 | – |
| Cc1ccc(C(=O)COC(=O)C(C)N2C(=O)C3C4C=CC(C4)C3C2=O)cc1 (configuration not stated) | 13 µM [rising, partial curve, poor fit] | 11.5 | – |
| CN1CCN(C(=O)/C(=C/c2ccccc2F)NC(=O)c2ccccc2)CC1 | – | -12.4 | – |
| COc1ccc(C2=NS(=O)(=O)N(C)C(C(=O)NCc3ccc4c(c3)OCO4)=C2)cc1OC | – | 11.2 | 0.058 µM [rising, full curve, poor fit] |
| COc1ccc(S(=O)(=O)N2CC=C(C(=O)NC3CCCC3)CC2)cc1 | 4.61 µM [falling, partial curve] | -13.9 | – |
| O=C(NNC(=S)NCc1ccco1)c1ccc(Cl)s1 | 18.4 µM [falling, single point] | -48.2 | 16.4 µM [falling, single point] |
| Cc1ccc(C2C(C#N)=C(N)Oc3nc(-c4ccccc4)[nH]c32)o1 (configuration not stated) | 29.1 µM [rising, single point] | -21.7 | – |
| COc1ccc2c(Cl)c(C(=O)N/N=C/c3ccncc3)sc2c1 | 16.4 µM [falling, partial curve] | 52.8 | 7.31 µM [rising, full curve, poor fit] |
| COc1ccc(S(=O)(=O)N2CCC(C(=O)Nc3nnc(C)s3)CC2)cc1OC | 0.82 µM [falling, full curve, poor fit] | 13.8 | – |
| COc1ccc2[nH]c3c(N4CC(C)OC(C)C4)ncnc3c2c1 (configuration not stated) | 0.116 µM [rising, full curve, poor fit] | – | 3.66 µM [rising, partial curve] |
| CNc1nc(-c2ccc(S(=O)(=O)N3CCCCC3)cc2)cs1 | 0.58 µM [rising, single point] | -11.3 | – |
| CCOC(=O)C1=C(C)SC2=NS(=O)(=O)CCN21 | 0.0731 µM [falling, full curve, poor fit] | 0.875 | – |

Structural class: the entries above with a cyano group.

| SMILES | AC50 [1] | cell number change [%] | AC50 [2] |
| --- | --- | --- | --- |
| CCOC(=O)CCc1c(C)nc(SCCCn2c(=O)[nH]c3ccccc32)c(C#N)c1C | – | – | 0.103 µM [rising, full curve, poor fit] |
| Cc1ccc(C2C(C#N)=C(N)Oc3nc(-c4ccccc4)[nH]c32)o1 (configuration not stated) | 29.1 µM [rising, single point] | -21.7 | – |

Carrying on.

| SMILES | AC50 [1] | cell number change [%] | AC50 [2] |
| --- | --- | --- | --- |
| Cc1ccc(NC(=O)COC(=O)c2ccc3c(c2)NC(=O)C2CCCN32)cc1 (configuration not stated) | 1.46 µM [rising, single point] | 7.11 | – |
| Nc1c(C(=O)CCC(=O)O)oc2ccc(Cl)cc12 | – | -1.1 | – |
| COc1cccc(NC(=O)CCP(C)(=O)O)c1 | – | 1.35 | – |
| COc1ccc(NS(=O)(=O)c2ccc3c(c2)NC(=O)CCS3)cc1Cl | – | -0.472 | – |
| CCCCNS(=O)(=O)c1ccc2nc(-c3cccnc3)cc(C(=O)NC(C)CC)c2c1 (configuration not stated) | 0.184 µM [rising, single point] | 11.6 | – |
| CCN(c1ccccc1)S(=O)(=O)c1ccc(N)c(OC)c1 | 0.184 µM [rising, full curve] | 58.6 | 0.0517 µM [rising, full curve, poor fit] |
| NCCCC(=O)N1c2ccccc2Sc2ccc(Cl)cc21 | – | -8.51 | – |
| O=C(O)C1C2C=CC(C2)C1C(=O)N1CCOCC1 (configuration not stated) | – | -199 | 23.1 µM [falling, partial curve] |
| CCN(CC)S(=O)(=O)c1cc(NC(=O)c2ccc(-n3cncn3)c([N+](=O)[O-])c2)ccc1C | – | -45.3 | 8.2 µM [falling, partial curve] |
| NC(=O)CNc1ncc(C(F)(F)F)cc1Cl | – | 54.4 | 29.1 µM [rising, partial curve, poor fit] |
| O=C1C2C(C(=O)N1CCN1CCN(Cc3ccc([N+](=O)[O-])cc3)CC1)[C@H]1C=C[C@@H]2C1 (some centres not stated) | 29.1 µM [falling, single point] | 13.9 | – |
| CCN(CC)S(=O)(=O)c1cc(NC(=O)C(C)N2CCc3ccccc32)ccc1C (configuration not stated) | – | – | 3.26 µM [rising, single point] |
| CN(C)/C=C(/C(=O)c1ccc(Cl)c(Cl)c1)S(C)(=O)=O | – | -4.92 | – |
| CC1(C)Cc2cccc(OCC(=O)N3CCN(c4ccccc4F)CC3)c2O1 | – | 74.5 | – |
| COc1ccccc1C(=O)NCCC(=O)NCC(c1ccccc1)N(C)C (configuration not stated) | 29.1 µM [rising, single point] | 48.6 | 29.1 µM [rising, single point] |
| Clc1ccccc1-c1nnc(-c2cccs2)o1 | 18.4 µM [falling, partial curve] | -34.9 | 20.6 µM [falling, single point] |
| CCOC(=O)Cn1nnc2c(sc3nc4c(c(-c5ccccc5)c32)CCC4)c1=O | 0.411 µM [rising, full curve] | 35.1 | 0.326 µM [rising, full curve] |
| Cc1ccccc1NC(=O)Cc1nc(COC(=O)c2cccnc2Cl)cs1 | 29.1 µM [falling, single point] | -15.7 | – |
| Nc1ccc(S(=O)(=O)c2ccccc2)nc1 | 5.8 µM [rising, full curve, poor fit] | 23 | – |
